Data taken from PubChem BioAssay AID1671190 (National Center for Advancing Translational Sciences (NCATS), 2021).
The campaign covered roughly 580,000 compounds. About 6,100 (1.1%) were called active. Inconclusive results, whose numbers are uncertain, are shown with a selection of clear calls. The call rests on the fitted dose curve; in most records, active means well fitted inhibition curve with a large enough effect; inconclusive means small, poorly fitted or top-dose-only effect, or another doubt; inactive means no such curve, though single readings can be large or run the other way. A potency beside an inconclusive call is a rough fit, not a confirmed value.

By UniProt entry, the sequences of proteins in these tests, tags left out. Where a name states a change or a piece, a line headed by the entry shows the natural chain unless it says otherwise.
UniProt P18054: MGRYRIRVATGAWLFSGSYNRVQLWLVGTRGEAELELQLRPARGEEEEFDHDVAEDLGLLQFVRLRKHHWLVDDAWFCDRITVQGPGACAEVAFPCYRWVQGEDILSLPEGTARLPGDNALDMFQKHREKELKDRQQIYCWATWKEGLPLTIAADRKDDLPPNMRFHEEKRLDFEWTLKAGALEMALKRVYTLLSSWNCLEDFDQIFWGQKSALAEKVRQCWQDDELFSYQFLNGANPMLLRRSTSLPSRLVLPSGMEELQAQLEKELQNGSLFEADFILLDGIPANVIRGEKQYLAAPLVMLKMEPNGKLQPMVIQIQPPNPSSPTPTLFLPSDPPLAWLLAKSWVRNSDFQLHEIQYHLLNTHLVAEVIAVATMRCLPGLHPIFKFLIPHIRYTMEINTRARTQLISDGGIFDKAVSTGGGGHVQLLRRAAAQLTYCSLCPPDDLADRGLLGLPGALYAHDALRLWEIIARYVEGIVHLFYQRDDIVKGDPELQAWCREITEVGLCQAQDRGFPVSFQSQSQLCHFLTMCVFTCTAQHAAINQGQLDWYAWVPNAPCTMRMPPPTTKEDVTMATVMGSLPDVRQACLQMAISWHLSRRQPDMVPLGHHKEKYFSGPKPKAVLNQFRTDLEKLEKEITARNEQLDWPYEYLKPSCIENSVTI

molecular target: Polyunsaturated fatty acid lipoxygenase ALOX12 (Homo sapiens) (UniProt P18054); assay: Primary qHTS assay for inhibitors of human arachidonate 12S-lipoxygenase (ALOX12): Round 2; details: purified 12hLO, xylenol orange hydroperoxide absorbance; series mostly up to 108 µM
Outline: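 Purified human 12hLO at 150 nM in 25 mM Hepes, 0.01% Triton X-100, pH 7.0, preincubated 15 min at room temperature with compound. Reaction started with 40 uM arachidonic acid, 30 min at room temperature. Hydroperoxide measured by Fe-xylenol orange, 573/405 nm absorbance ratio.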
Potency means the concentration at half of the fitted maximal effect.

SMILES | Potency
CN1CCN(C(=O)C(C)(C)Oc2nn(Cc3cccc(Cl)c3)c3ccccc23)CC1 | inconclusive: 20 µM [inhibitor, full curve]
COc1cc(CN2c3ccccc3C(=O)CS2(=O)=O)cc(OC)c1 | inactive
COc1ccc(N2CCN(Cc3nc(-c4ccc(Cl)cc4Cl)no3)CC2)cc1 | inconclusive: 50.1 µM [inhibitor, partial curve, poor fit]
Cc1cc(C)c(-c2cc(NC(=O)COC(=O)c3ccc(NC(=O)CC#N)cc3)n(-c3ccccc3)n2)cc1C | inactive
Cc1sc2nc(C(C)C)oc(=O)c2c1C | inactive
CN(Cc1ccon1)C(=O)CC1C(=O)NCCN1Cc1cccc(Oc2ccccc2)c1 (stereo not drawn) | inconclusive: 44.7 µM [inhibitor, single point]
S=C1CC2CCCC(C2)N1 (stereo not drawn) | inconclusive: 50.1 µM [inhibitor, partial curve, poor fit]
COCCN(C(=O)c1ccc(N2CCCC2=O)cc1)c1c(N)n(Cc2ccccc2)c(=O)[nH]c1=O | inconclusive: 112 µM [inhibitor, single point]
CCc1cccc(OCCCn2ccnc2)c1 | inconclusive: 0.355 µM [inhibitor, full curve, poor fit]
COCCOc1ccc(C(=O)N[C@@H]2CN(C(=O)Nc3cccc(OC)c3)CCC[C@H]2O)cc1 | inactive
COc1ccc(C(C)=O)cc1CN1CCCC1 | inactive
Cn1nc(C(=O)OCCOc2ccc(Cl)cc2)c2ccccc2c1=O | inactive
O=C(NCCc1ccc(O)cc1)C1CCN(c2nc(Cl)nc3nc[nH]c23)CC1 | inconclusive: 100 µM [inhibitor, single point]
Cc1cc2cc(CNC(=O)C(C)Oc3ccccc3)ccc2n1C (stereo not drawn) | inactive
Cc1cn2nc(C(=O)NCc3cc(F)cc(F)c3)cc2c(N(C)Cc2ccccc2)n1 | inactive
COC(=O)Cc1[nH]n(-c2nc3ccccc3s2)c(=O)c1C(C)=Nc1ccc(OC)cc1 | inconclusive: 70.8 µM [inhibitor, partial curve, poor fit]
O=C(CSc1nc2cc([N+](=O)[O-])ccc2o1)NCc1ccc(F)cc1 | inconclusive: 39.8 µM [inhibitor, partial curve, poor fit]
O=C1Nc2ccccc2NC(c2ccc3c(c2)OCO3)=C1N(Cc1ccc(F)cc1)C(=O)c1ccco1 | inconclusive: 22.4 µM [inhibitor, partial curve, poor fit]
Cc1noc(C)c1NC(=O)Nc1ccc2c(c1)C(=O)N([C@H](C)CO)C[C@H](C)[C@H](CN(C)Cc1ccncc1)OCCCC[C@@H](C)O2 | inconclusive: 89.1 µM [inhibitor, partial curve, poor fit]
CN1CCN(Cc2c(O)ccc3c2oc(=O)c2ccccc23)CC1 | inconclusive: 89.1 µM [inhibitor, single point]
CNC(=S)NNc1ccccc1[N+](=O)[O-] | inconclusive: 50.1 µM [inhibitor, partial curve, poor fit]
CCOC(=O)c1ccccc1NC(=O)c1cc2c(=O)oc3ccc(C)cc3c2s1 | inactive

A draw from above in order of molar mass, falling:
SMILES | Potency
O=C1Nc2ccccc2NC(c2ccc3c(c2)OCO3)=C1N(Cc1ccc(F)cc1)C(=O)c1ccco1 | inconclusive: 22.4 µM [inhibitor, partial curve, poor fit]
COCCOc1ccc(C(=O)N[C@@H]2CN(C(=O)Nc3cccc(OC)c3)CCC[C@H]2O)cc1 | inactive
COc1ccc(N2CCN(Cc3nc(-c4ccc(Cl)cc4Cl)no3)CC2)cc1 | inconclusive: 50.1 µM [inhibitor, partial curve, poor fit]
CCOC(=O)c1ccccc1NC(=O)c1cc2c(=O)oc3ccc(C)cc3c2s1 | inactive
O=C(NCCc1ccc(O)cc1)C1CCN(c2nc(Cl)nc3nc[nH]c23)CC1 | inconclusive: 100 µM [inhibitor, single point]
O=C(CSc1nc2cc([N+](=O)[O-])ccc2o1)NCc1ccc(F)cc1 | inconclusive: 39.8 µM [inhibitor, partial curve, poor fit]
COc1cc(CN2c3ccccc3C(=O)CS2(=O)=O)cc(OC)c1 | inactive
Cc1sc2nc(C(C)C)oc(=O)c2c1C | inactive

The list continues.

SMILES | Potency
CCOC(=O)C1=C(O)c2ccccc2C(=O)/C1=C\c1ccc(CC)cc1 | inconclusive: 14.1 µM [inhibitor, full curve, poor fit]
CCc1ccccc1Oc1nc(NCc2ccccc2)nc2ccsc12 | inconclusive: 89.1 µM [inhibitor, single point]
CNC(=O)CC1CCOC2(CCN(C(=O)NCc3ccc(OC)cc3)CC2)C1 (stereo not drawn) | inactive
C[C@H](NC(=O)C(=O)Nc1cccc(C(=O)c2nccn2C)c1)c1ccccc1 | inconclusive: 44.7 µM [inhibitor, partial curve]
CCOC(=O)c1ccc(NC(=S)NNC(C)(C)C)cc1 | inconclusive: 89.1 µM [inhibitor, partial curve, poor fit]
N#Cc1nc(-c2ccccc2Cl)oc1N1CCN(C(=O)c2ccco2)CC1 | inactive
CC(CCc1ccccc1)C(=O)NO (stereo not drawn) | inconclusive: 25.1 µM [inhibitor, partial curve]
COC(=O)c1nc(NC(=O)c2ccc(Br)cc2)n[nH]1 | inconclusive: 50.1 µM [inhibitor, partial curve, poor fit]
CC(C)c1cccc(-c2csc(C(C)(O)c3cccc(F)c3)n2)c1 (stereo not drawn) | inconclusive: 89.1 µM [inhibitor, partial curve, poor fit]
COCCNC(=O)CCCN1C(=O)COc2ccc(C(=O)COc3ccc(Cl)cc3C)cc21 | inactive
COc1ccc(-c2csc(C(C)(NC(C)=O)c3ccc(OC)cc3)n2)cc1 (stereo not drawn) | inconclusive: 100 µM [inhibitor, single point]
CCc1ccc(C2CC(C(=O)NCc3ccco3)CN(C(=O)c3ccc(F)cc3)C2)cc1 (stereo not drawn) | inconclusive: 14.1 µM [inhibitor, full curve]
Cc1ccc(NC(=O)Cn2cc3c(n2)CCCCC3)cc1 | inconclusive: 4.47 µM [inhibitor, full curve, poor fit]
COc1ccccc1NC(=O)C1CC(C(C)C)OC1=O (stereo not drawn) | inconclusive: 112 µM [inhibitor, partial curve, poor fit]
N#Cc1ccc(OCc2noc(-c3ccc(Cl)cc3)n2)c(Cl)c1 | inconclusive: 1.41 µM [inhibitor, full curve]
O=C(/C=C/c1ccccc1Cl)c1cccc(O)c1 | inactive
O=C1/C(=C/c2ccc3c(c2)OCO3)SC(=S)N1CCC(=O)N(CCO)c1ccccc1 | inconclusive: 44.7 µM [inhibitor, partial curve, poor fit]
O=c1[nH]c(N2CCN(c3ccc(F)cc3)CC2)nc2c1CCC2 | inconclusive: 141 µM [inhibitor, partial curve, poor fit]
O=C(NCCOc1ccccc1)c1cccc2c1C(=O)c1ccc(Cl)cc1S2(=O)=O | inactive
CC(Oc1ccc(Cl)cc1Cl)C(=O)Nc1ccc2oc(=O)ccc2c1 (stereo not drawn) | inconclusive: 50.1 µM [inhibitor, partial curve, poor fit]
O=C(O)CCC(=O)c1ccc(Br)cc1 | inconclusive: 39.8 µM [inhibitor, partial curve, poor fit]
